Values are relative to the signal before dosing, not to a vehicle control; the signal also falls without drug.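 Fibroblast labels name human fibroblasts: mostly primary ones from tissues such as uterus (C12385, HUF), lung (H6013), bone (Hs27A), adrenal (HADF) and skin (WS1), plus mammary HMF and breast cancer-associated Hs343T. The cancer cells are basal-like or mesenchymal-like triple-negative breast cancer lines. The paper calls a changed response a hit when it shifts by more than 3x the replicate standard deviation. The tissue of the other fibroblasts is not given here.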
Test system: MDAMB436
Test: relative JC-1 red fluorescence (viability) vs pre-drug, coculture with fibroblast (fraction); higher = more viable cancer cells
Conditions: 0.1 µM
Description: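 JC-1 labelled TNBC cells cocultured 1:1 (1,500 cells each) with CellTrace Violet stained primary or stromal fibroblasts in 384-well plates in FluoroBrite medium, treated with one of 42 anticancer drugs at 0.1, 1, 10 or 100 uM. JC-1 red fluorescence (mitochondrial integrity in cancer cells only) was read by plate reader every 8 h for 72 h. Values are normalised to each well's pre-drug value. The stock of one drug was tenfold lower, so its dose labels may be too high.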

CO[C@H]1C[C@@H]2CC[C@@H](C)[C@@](O)(O2)C(=O)C(=O)N2CCCC[C@H]2C(=O)O[C@H]([C@H](C)C[C@@H]2CC[C@@H](OCCO)[C@H](OC)C2)CC(=O)[C@H](C)/C=C(\C)[C@@H](O)[C@@H](OC)C(=O)[C@H](C)C[C@H](C)/C=C/C=C/C=C/1C [Everolimus]
relative JC-1 red fluorescence
Conditions | 8 h | 16 h | 24 h | 32 h | 40 h | 48 h | 56 h | 64 h | 72 h
coculture fibroblast: C12385 | 0.78256 | 0.682 | 0.646 | 0.564 | 0.5151 | 0.4824 | 0.4619 | 0.4437 | 0.435
coculture fibroblast: H6013 | 0.8 | 0.771 | 0.765 | 0.768 | 0.757 | 0.795 | 0.76 | 0.754 | 0.725
coculture fibroblast: H6019 | 0.6872 | 0.64 | 0.606 | 0.536 | 0.505 | 0.496 | 0.481 | 0.466 | 0.452
coculture fibroblast: H6076 | 0.717 | 0.665 | 0.655 | 0.613 | 0.606 | 0.583 | 0.597 | 0.596 | 0.591
coculture fibroblast: H6231 | 0.751 | 0.65 | 0.6485 | 0.567 | 0.5512 | 0.517 | 0.509 | 0.486 | 0.473
coculture fibroblast: HADF | 0.8339 | 0.752 | 0.739 | 0.708 | 0.6959 | 0.7226 | 0.6582 | 0.6528 | 0.615
coculture fibroblast: HCFa | 0.735 | 0.664 | 0.631 | 0.6 | 0.566 | 0.584 | 0.519 | 0.51 | 0.457
coculture fibroblast: HCPF | 0.808 | 0.708 | 0.681 | 0.6068 | 0.5814 | 0.549 | 0.5257 | 0.504 | 0.492
coculture fibroblast: HHSteC | 0.879 | 0.855 | 0.747 | 0.702 | 0.754 | 0.774 | 0.652 | 0.705 | 0.717
coculture fibroblast: HMF | 0.706 | 0.658 | 0.628 | 0.58 | 0.565 | 0.526 | 0.527 | 0.51 | 0.502
coculture fibroblast: HPFa | 0.88 | 0.79 | 0.753 | 0.711 | 0.686 | 0.691 | 0.624 | 0.606 | 0.547
coculture fibroblast: HUF | 0.829 | 0.701 | 0.662 | 0.585 | 0.526 | 0.496 | 0.471 | 0.459 | 0.449
coculture fibroblast: Hs5 | 0.781 | 0.701 | 0.691 | 0.641 | 0.628 | 0.586 | 0.598 | 0.565 | 0.56
coculture fibroblast: Hs27A | 0.767 | 0.676 | 0.665 | 0.646 | 0.632 | 0.701 | 0.615 | 0.603 | 0.535
coculture fibroblast: Hs343T | 0.7554 | 0.7 | 0.669 | 0.624 | 0.6091 | 0.574 | 0.5708 | 0.5617 | 0.5539
coculture fibroblast: WS1 | 0.7531 | 0.6756 | 0.6366 | 0.5537 | 0.52485 | 0.5021 | 0.484 | 0.467 | 0.455

Reference: the supplement of paper PMC6078165
